{"source": "paper PMC5494299", "binders": {"B1": {"name": "CagZ (protein, UniProt B5Z6P9 1-199)", "chain": "MELGFNETERQKILDSNKSLMGNANEVRDKFIQNYASSLKDSNDPQDFLRRVQELRINMQKNFISFDVYYNYLNNLVLASYNRCKQEKTFAESTIKNELTLGEFVAEISDNFNNFMCDEVARISDLVASYLPREYLPPFIDGNMMGVAFQILGIDDFGRKLNEIVQDIGTKYIILSKNKTYLTSLERAKLITQLKLNLE"}}, "key": {"[1]": {"target": "CagV (Helicobacter pylori (endogenous in strain 26695))", "test": "co-IP; anti‐CagV antibody cross‐linked (DMP) to protein‐A agarose; detergent‐solubilized extracts of wild‐type H. pylori 26695 and ΔcagV/cagV (also of ΔcagT, ΔcagM, Δcagδ); 1× PBS pH 7.4, 2 mM EDTA, 2 mM DTT, 1% TritonX‐100, 0.2% sodium deoxycholate; 4 °C O/N; western blot"}, "[2]": {"target": "MBP‐CagF (Helicobacter pylori)", "test": "pull-down; purified MBP‐tagged bait or MBP alone (10 μg) on amylose–agarose beads, mixed O/N with H. pylori cell extract (1 mg·mL^−1); 50 mM Tris‐HCl, 150 mM NaCl, pH 7.4, 1% TritonX‐100, 0.2% sodium deoxycholate, 2 mM DTT, 2 mM EDTA; western blot; only the target purified"}, "[3]": {"target": "MBP‐CagV (Helicobacter pylori)", "test": "pull-down; purified MBP‐tagged bait or MBP alone (10 μg) on amylose–agarose beads, mixed O/N with H. pylori cell extract (1 mg·mL^−1); 50 mM Tris‐HCl, 150 mM NaCl, pH 7.4, 1% TritonX‐100, 0.2% sodium deoxycholate, 2 mM DTT, 2 mM EDTA; western blot; only the target purified"}}, "note": "No constants are given. Whether binding was seen depends on the method and setting. Binding seen in cells or lysates may run through a third protein. For part of these data: A result given as binding can be weak or reduced; the word gives no strength.", "data": [{"binder": "B1", "values": [{"measurement": "binding", "setting": "[1]", "value": "no binding"}, {"measurement": "binding", "setting": "[2]", "value": "binds"}, {"measurement": "binding", "setting": "[3]", "value": "binds"}]}]}
